At least one structure is not confirmed: it was looked up by name or label, or the drawing left a doubt.
How the values were obtained:
subjects with PAH [1] = experiment: Example 1 (ARIES-2) placebo-controlled Phase III trial, efficacy; assay type: in vivo, human; conditions: during the 12-week study
Method: (§1) The primary objective of this study was to determine the effect of ambrisentan on exercise capacity in subjects with PAH. The secondary objectives of this study were to evaluate effects of ambrisentan on other clinical measures of PAH, as well as safety and tolerability of the study drug.
(§2) Study drug was provided in round, biconvex, oral tablets that were identical in appearance. Three strengths of active study drug, containing 1 mg, 2.5 mg or 5 mg of ambrisentan, were used in this study. All study drug was packaged in blister cards. Subjects were instructed to take study drug once daily (q.d.) by mouth (p.o.) in the morning, with or without food.
The maximum study duration was up to 14 weeks from the time of initial screening procedures to the final study visit (Week 12). […]
(§3) After a 2 week screening period, eligible subjects were stratified based on the underlying etiology of PAH (idiopathic or non-idiopathic) and were randomized to 1 of 3 treatment groups (placebo, 2.5 mg or 5 mg ambrisentan) in a ratio of 1:1:1. […] Subjects were assessed for efficacy and safety at monthly intervals. […]
(§4) The primary efficacy endpoint was change from baseline in 6MWD evaluated after 12 weeks of treatment compared to placebo. […]
(§5) The primary efficacy endpoint was the change from baseline in 6MWD evaluated after 12 weeks of treatment compared to placebo, where the last observation was carried forward. […]

subjects with PAH [2] = experiment: Example 2 (ARIES-1) placebo-controlled Phase III trial, efficacy; assay type: in vivo, human; conditions: during the 12-week study
Method: as §1, with “pulmonary arterial hypertension (PAH).” for “PAH.”
as §2, with “drug” for “drug,”, “2.5” for “1”, “5” for “2.5”, “10” for “5”, “ambrisentan” for “ambrisentan,”, “food. […]” for “food.”
as §3, with “5” for “2.5”, “10” for “5”
as §4, §5

patients with PAH = conditions: cited from earlier work

Question: Which “changes in plasma cTnT concentrations” value (subjects with PAH [1]) does the source give for `COC(c1ccccc1)(c1ccccc1)[C@H](Oc1nc(C)cc(C)n1)C(=O)O` [ambrisentan] here?
Answer: Its value is “minor and not remarkably different from zero”.

Question: What about the “changes in plasma cTnT concentrations” value (subjects with PAH [2]) of the same compound?
Answer: The value was “minor and not remarkably different from zero”.

Question: What about the “mean increase from baseline in 6MWD” value (patients with PAH; all patients, after 12 weeks of treatment) of the same compound?
Answer: The value was 36 meters.

Question: And the one-year survival rate (patients with PAH; patients with idiopathic PAH)?
Answer: Its one-year survival rate is 92%.

— patent US9504685B2, “Method for treating a pulmonary hypertension condition” (Gilead Sciences, Inc., priority 2006, dated 2016)
